107 sequences from PubChem BioAssay AID1347426 (Functional Genomics Laboratory (NCATS/FGL), 2020) can be followed below.

In all, about 31,000 sequences went through this assay and about 1,400 (4.5%) were called active.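 Rule for the calls: active = median seed-adjusted z-score above 1 or below -1; inactive = the rest.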 The list shows a part of the results.

This assay in a line: Novel Modifiers of Survival Motor Neuron (SMN) Protein: Gene Identification via Genome-wide siRNA Screen.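 Note: luminescence tracks full-length SMN protein made from the SMN2 reporter.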 The note with it: HEK293T SMN2-luciferase reporter, siRNA knockdown, 72 h; actives lie on both sides. In short, it runs like this:
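siRNA screen, 10418 genes ×3 siRNAs; 1 pmol/well, lipid reverse transfection into HEK293T SMN2-luc reporter line. 72 h, 37 °C, 5% CO2; ONE-Glo readout. Data: neg-ctrl normalized, log10, MAD; hit = MAD >1.0 or < -1.0.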
As to GAAGAGAUCAAGUAAUUAUTT against TTRAP, the median seed-adjusted z-score was inactive: -0.33.
On to GCGUCUUGGUGAUUGGUCUTT against FMO4, for which the median seed-adjusted z-score was inactive: -0.359.
As for CGAUCGAACAGAAGAAGAATT against ICMT, the median seed-adjusted z-score is inactive: -0.0602.
For the sequence GGACAUCUAUGUUAUAUGUTT against TRIM65, the median seed-adjusted z-score was inactive: -0.599.
Consider CCUCAAGGAUUACACGAAATT against TSEN2, for which the median seed-adjusted z-score is inactive: 0.
Take GCUAUAAGCCGAUAGUAGATT against 11-Sep: the median seed-adjusted z-score is inactive: -0.245.
With AGAUCCUAGAGCUCCUAUATT against CSTF2T, the median seed-adjusted z-score was inactive: 0.387.
UGAUGUAUUUGACCACCAATT against MPP2: the median seed-adjusted z-score is inactive: 0.0496.
For the sequence GGUGGAAACUGGUAUCCGATT against NAALAD2, the median seed-adjusted z-score is inactive: -0.00068.
Regarding CCAGAAACCUGCACGACAATT against OPLAH, the median seed-adjusted z-score is inactive: -0.233.
For GUAUCAGGGUGUCCGCAAATT against GZF1, the median seed-adjusted z-score is inactive: 0.286.
For AGUGGACCCUGAUAAACCATT against MTHFSD the value was inactive: -0.298; for CAACACGUCUGACUUCUCUTT against ZFPL1, inactive: -0.072; for GCUGGAUUUCGAACACGAATT against KIF27, inactive: 0.412.
On to GAAGGUGAAUGUACCCUAATT against RHOG, for which the median seed-adjusted z-score was inactive: -0.354.
As to UGGAAUAAGUGGGCUCUGATT against ADM, the median seed-adjusted z-score is inactive: 0.65.
Regarding GGAUGAUGUACUUCUCUCATT against MLNR, the median seed-adjusted z-score is inactive: -0.038.
For CAAUCUCUCUUAUCCUUGATT against RORC, the median seed-adjusted z-score is inactive: -0.243.
As to GGCAAUGCGUUGGUUUGUATT against FN1, the median seed-adjusted z-score is inactive: -0.312.
In the case of CGUACCAAUCUCAAAAAUATT against LILRB1, the median seed-adjusted z-score is inactive: 0.539.
In the case of GCCUGACCCUUGUACACUATT against TSPAN17, the median seed-adjusted z-score was inactive: -0.0774.
As to CAACGAUAGCACAAAAUGUTT against SLC17A3, the median seed-adjusted z-score is inactive: -0.296.
Take GACCUUGAAUGUUCAACAUTT against ZNF470: the median seed-adjusted z-score is active: -1.26.
Turning to GAAUUUCUAUGACCAAAUUTT against KDELR3, the median seed-adjusted z-score is inactive: 0.476.
Consider GUAUCAAUCUAGAGCACAATT against MYOZ2, for which the median seed-adjusted z-score is inactive: 0.315.
Turning to CAACAAGUGUCACGGCAUATT against ZMYM6, the median seed-adjusted z-score is inactive: -0.355.
For the sequence GGAACAGCACAGAACAGCATT against ARID5A, the median seed-adjusted z-score is inactive: 0.0642.
On to CCAGGGAAAUAUCAGCCUUTT against APRT, for which the median seed-adjusted z-score was inactive: 0.0278.
Turning to GAACUGAGAGUGAUUGAGATT against IL8, the median seed-adjusted z-score is inactive: 0.0521.
Take CCUCUAUACCAAGCCCUAATT against ST18: the median seed-adjusted z-score was inactive: 0.0762.
In the case of GCCUCUCAAUGAGUAUCGATT against AIFM2, the median seed-adjusted z-score is inactive: -0.106.
For GAUGAGGUCUUAGAUGCAATT against USP30 the value was inactive: -0.646; for GGCUCGCUUUGAAAAGCUATT against LIN7A, active: -1.39; for AGGGCACCUCAGAAACAGATT against CD40, inactive: 0.275.
GAACGAGUGAAAUACGAGATT against DNAH5: the median seed-adjusted z-score was inactive: -0.45.
As for GAACCAAGAUCAUUAUGCATT against DNAJC2, the median seed-adjusted z-score is inactive: -0.0357.
For the sequence UGACAUCCGUAAGGACUUATT against ACTG2, the median seed-adjusted z-score is inactive: 0.157.
GAGCAAUGCUGACUAUCAATT against CNOT7: the median seed-adjusted z-score was inactive: 0.716.
On to GACUGAAUGUUUAUACAGUTT against OSBPL1A, for which the median seed-adjusted z-score is inactive: 0.0845.
GGAUACGAGGUGGACAAAATT against CHIT1: the median seed-adjusted z-score was inactive: -0.578.
For GAGUCGAAAGGACAAAGAATT against MLLT6, the median seed-adjusted z-score was inactive: -0.281.
As for CACUAGCAGUUGCAAGUAATT against RAB3GAP2, the median seed-adjusted z-score is inactive: 0.0583.
As for CCCUCAACCUCCACAACAATT against PODNL1, the figure is inactive: -0.448.
For CCAACAAGAUGCUAGAGCATT against CBFA2T2, the median seed-adjusted z-score is inactive: -0.201.
For AAACUAAUCUUAACCCUGUTT against GJB1, the median seed-adjusted z-score is inactive: 0.152.
For GACUUUUGGACCAACCUAATT against FARP2 the value was inactive: -0.0358; for GAGUGGACUGUGGAAGAUATT against RCOR1, active: -1.13.
Consider AGAUGAACCUCUACUAUGATT against FOXI1, for which the median seed-adjusted z-score was inactive: -0.217.
Take GAAGAAUACGUACACCGAATT against DDX43: the median seed-adjusted z-score is inactive: -0.452.
Take GGGUUUGGAGGCCGAAAUATT against CCDC88B: the median seed-adjusted z-score is inactive: -0.153.
On to CUACAUAGGUGUCUCCAAATT against SERPINA12, for which the median seed-adjusted z-score is inactive: -0.382.
Regarding GGAUGAUCCACUCACAAAUTT against ACTN1, the median seed-adjusted z-score was inactive: 0.
Consider UUACCAUCGUGAAGAGAAATT against CLEC5A, for which the median seed-adjusted z-score was active: -1.07.
For AAUCGAAGGAUGAAGAUGATT against HOXC9, the median seed-adjusted z-score was inactive: 0.395.
As to CAGGAGUCGUUGGAAGUUATT against PDE4A, the median seed-adjusted z-score is inactive: -0.147.
Take GGUCCCUCCUUACUCAACATT against HSPB8: the median seed-adjusted z-score was inactive: 0.207.
On to GCUCUUUACUUGUAGUAAUTT against GPR137C, for which the median seed-adjusted z-score is inactive: -0.405.
As for CAGUCACCGUGAAAAAGGATT against TCF7L1, the median seed-adjusted z-score is inactive: -0.251.
On to GGCUUCAACUUGGAGCUCUTT against GAD1, for which the median seed-adjusted z-score was inactive: 0.101.
As for GGGUGAAUGCUAUUGAGUUTT against MKRN1, the figure is inactive: -0.496; as for CUGCAGACUUGAAACAGUUTT against GNG5, inactive: -0.215.
Turning to GAGCUUCACUGUUACUAAATT against KRT6A, the median seed-adjusted z-score is inactive: -0.146.
As for CGUCUUUCCUUGUCUAUCUTT against KCNQ5, the median seed-adjusted z-score was inactive: 0.0191.
As for CGCUGUUUAGCGUACAUGATT against PCDHGA5, the figure is inactive: 0.163; as for GAAUCUUAGCGGCUACAGATT against SKP2, inactive: -0.126; as for GGCUCAUUGUUCUGCACUATT against S1PR4, inactive: 0.0951.
Consider CUGUUGUCGUUAUCUUGAATT against ORC3L, for which the median seed-adjusted z-score is inactive: -0.254.
For CAUCCAUCCUGAGUCUGAATT against BTD, the median seed-adjusted z-score was inactive: -0.165.
With GACCCACGCAGGGAGUUAATT against CDH26, the median seed-adjusted z-score is inactive: 0.
For GAGCGGCUGUUUGAAGAUUTT against CHRNA3, the median seed-adjusted z-score is inactive: -0.359.
As for GGAGGAAUCUUGGUCCUUATT against SLC11A2, the median seed-adjusted z-score is inactive: -0.157.
Take GAAGAAUAUUCGCAAAAUATT against HOXC4: the median seed-adjusted z-score is inactive: -0.0114.
Regarding GCAGAACUCUAACCGCUGUTT against MARK4, the median seed-adjusted z-score was inactive: -0.675.
Consider GAGGCGAUAUUGAUGUGCATT against GTF3C3, for which the median seed-adjusted z-score is inactive: 0.21.
With GGCUAUCUUCCACUGUUUATT against KCNMB3, the median seed-adjusted z-score was inactive: 0.513.
For GGUCAGCAAUGGAAGUAAUTT against ONECUT1 the value was inactive: -0.367; for GGAAGAGAUUCAAGUAUUATT against SLC7A11, inactive: -0.182; for GCUUCUACCCGGACGAAGATT against MYCN, inactive: 0.00242.
Regarding GAGAAGUCGAGGCUCUUUATT against WNT6, the median seed-adjusted z-score was inactive: 0.027.
As to GGCUCAUGCUUCAACAACATT against DMC1, the median seed-adjusted z-score is inactive: -0.00876.
In the case of CCGGCUCUCUGCUUACGUATT against TNFRSF4, the median seed-adjusted z-score was inactive: 0.311.
GGUGCCCAUCAAUCUCAUATT against GSTZ1: the median seed-adjusted z-score was inactive: -0.144.
Take GCUGAUAGCUUACGAGGAATT against CDC2L5: the median seed-adjusted z-score is inactive: 0.314.
Consider CCUAAUGCCUAUGAACUCUTT against PRMT5, for which the median seed-adjusted z-score was inactive: -0.303.
For GGGUCAAGGCUUUUGCAGATT against LDHD the value was inactive: 0; for CGAUAUGCUGAACAACAAATT against DHX29, inactive: -0.28; for CCAAGUAAGUCCAACGAAATT against SPP1, inactive: -0.293.
Regarding GUACGUGGACUGAUAUUAATT against CHD9, the median seed-adjusted z-score was inactive: 0.218.
Turning to GCUCAAUCCGGUACUUUGATT against CORO1A, the median seed-adjusted z-score is inactive: 0.569.
GCAUUGGUCUAGAGCUUUATT against SCPEP1: the median seed-adjusted z-score is inactive: -0.99.
Take GAAUCCCAAUGGAUUGAUUTT against IGF1R: the median seed-adjusted z-score is inactive: -0.358.
On to GGACAACAUUUGACACCAATT against APOBEC2, for which the median seed-adjusted z-score was inactive: 0.232.
For GGUUACGCUUGAUGAUAUATT against TCF20 the value was inactive: 0.392.
Turning to GAUGAUGACUUACAUAGAATT against TRRAP, the median seed-adjusted z-score was active: -1.25.
GCACCCACCUAGACACGAATT against GLIS1: the median seed-adjusted z-score was inactive: 0.838.
In the case of GACUACGUCCGAACCCGUATT against MLXIPL, the median seed-adjusted z-score was inactive: 0.
For GGUGAACAACAGUCAGAAGTT against GRINL1A the value was inactive: 0; for GGCUCGAUGUUAUGAGUCATT against WDR46, inactive: -0.136; for GAAGAUCUCCAACAAAAGATT against KRT40, inactive: -0.324.
For GAGUCAACAAUGGACAUUUTT against KLHL1 the value was inactive: 0.067; for CCACAAGCUGCAUAAGAGATT against SPTBN4, inactive: -0.0625.
For GCAGUUCGCCGUAGACUUUTT against DNM1 the value was inactive: 0.217; for GAACAAAAGCGUGAUCUUGTT against KLK3, inactive: 0.0191; for CGAAAAACCUGGGAAAGAUTT against ZNF669, inactive: 0.175.
GCUACGAGUUUACUAUCUUTT against TNIK: the median seed-adjusted z-score is inactive: 0.154.
GGUCUAAACUUGAUCCAAATT against CCAR1: the median seed-adjusted z-score is active: -1.18.
Take GCUCUAUUUUCGCUUAAAATT against LCMT2: the median seed-adjusted z-score was inactive: -0.0205.
